Test results as given in patent US5559128A, “3-substituted piperidines promote release of growth hormone” (Merck & Co., Inc., priority 1995, dated 1996).
The name of at least one read-out is uncertain.

Experiment: Log P
Conditions: Table I

CC(C)(N)C(=O)N[C@H](Cc1c[nH]c2ccccc12)C(=O)N1CCCC(N(c2ccccc2)S(=O)(=O)c2ccccc2)C1 (single isomer, unassigned) [3c]
Log P (min): 3.0 min
